# Experimental data published in the supplement of paper PMC12067093, “Discovery and optimisation of a covalent ligand for TRIM25 and its application to targeted protein ubiquitination” (Chemical Science, 2025).
# The chains behind the UniProt entries cited, without tags or fusion partners. Where a name states a change or a piece, a line headed by the entry shows the natural chain unless it says otherwise.
# UniProt Q99698: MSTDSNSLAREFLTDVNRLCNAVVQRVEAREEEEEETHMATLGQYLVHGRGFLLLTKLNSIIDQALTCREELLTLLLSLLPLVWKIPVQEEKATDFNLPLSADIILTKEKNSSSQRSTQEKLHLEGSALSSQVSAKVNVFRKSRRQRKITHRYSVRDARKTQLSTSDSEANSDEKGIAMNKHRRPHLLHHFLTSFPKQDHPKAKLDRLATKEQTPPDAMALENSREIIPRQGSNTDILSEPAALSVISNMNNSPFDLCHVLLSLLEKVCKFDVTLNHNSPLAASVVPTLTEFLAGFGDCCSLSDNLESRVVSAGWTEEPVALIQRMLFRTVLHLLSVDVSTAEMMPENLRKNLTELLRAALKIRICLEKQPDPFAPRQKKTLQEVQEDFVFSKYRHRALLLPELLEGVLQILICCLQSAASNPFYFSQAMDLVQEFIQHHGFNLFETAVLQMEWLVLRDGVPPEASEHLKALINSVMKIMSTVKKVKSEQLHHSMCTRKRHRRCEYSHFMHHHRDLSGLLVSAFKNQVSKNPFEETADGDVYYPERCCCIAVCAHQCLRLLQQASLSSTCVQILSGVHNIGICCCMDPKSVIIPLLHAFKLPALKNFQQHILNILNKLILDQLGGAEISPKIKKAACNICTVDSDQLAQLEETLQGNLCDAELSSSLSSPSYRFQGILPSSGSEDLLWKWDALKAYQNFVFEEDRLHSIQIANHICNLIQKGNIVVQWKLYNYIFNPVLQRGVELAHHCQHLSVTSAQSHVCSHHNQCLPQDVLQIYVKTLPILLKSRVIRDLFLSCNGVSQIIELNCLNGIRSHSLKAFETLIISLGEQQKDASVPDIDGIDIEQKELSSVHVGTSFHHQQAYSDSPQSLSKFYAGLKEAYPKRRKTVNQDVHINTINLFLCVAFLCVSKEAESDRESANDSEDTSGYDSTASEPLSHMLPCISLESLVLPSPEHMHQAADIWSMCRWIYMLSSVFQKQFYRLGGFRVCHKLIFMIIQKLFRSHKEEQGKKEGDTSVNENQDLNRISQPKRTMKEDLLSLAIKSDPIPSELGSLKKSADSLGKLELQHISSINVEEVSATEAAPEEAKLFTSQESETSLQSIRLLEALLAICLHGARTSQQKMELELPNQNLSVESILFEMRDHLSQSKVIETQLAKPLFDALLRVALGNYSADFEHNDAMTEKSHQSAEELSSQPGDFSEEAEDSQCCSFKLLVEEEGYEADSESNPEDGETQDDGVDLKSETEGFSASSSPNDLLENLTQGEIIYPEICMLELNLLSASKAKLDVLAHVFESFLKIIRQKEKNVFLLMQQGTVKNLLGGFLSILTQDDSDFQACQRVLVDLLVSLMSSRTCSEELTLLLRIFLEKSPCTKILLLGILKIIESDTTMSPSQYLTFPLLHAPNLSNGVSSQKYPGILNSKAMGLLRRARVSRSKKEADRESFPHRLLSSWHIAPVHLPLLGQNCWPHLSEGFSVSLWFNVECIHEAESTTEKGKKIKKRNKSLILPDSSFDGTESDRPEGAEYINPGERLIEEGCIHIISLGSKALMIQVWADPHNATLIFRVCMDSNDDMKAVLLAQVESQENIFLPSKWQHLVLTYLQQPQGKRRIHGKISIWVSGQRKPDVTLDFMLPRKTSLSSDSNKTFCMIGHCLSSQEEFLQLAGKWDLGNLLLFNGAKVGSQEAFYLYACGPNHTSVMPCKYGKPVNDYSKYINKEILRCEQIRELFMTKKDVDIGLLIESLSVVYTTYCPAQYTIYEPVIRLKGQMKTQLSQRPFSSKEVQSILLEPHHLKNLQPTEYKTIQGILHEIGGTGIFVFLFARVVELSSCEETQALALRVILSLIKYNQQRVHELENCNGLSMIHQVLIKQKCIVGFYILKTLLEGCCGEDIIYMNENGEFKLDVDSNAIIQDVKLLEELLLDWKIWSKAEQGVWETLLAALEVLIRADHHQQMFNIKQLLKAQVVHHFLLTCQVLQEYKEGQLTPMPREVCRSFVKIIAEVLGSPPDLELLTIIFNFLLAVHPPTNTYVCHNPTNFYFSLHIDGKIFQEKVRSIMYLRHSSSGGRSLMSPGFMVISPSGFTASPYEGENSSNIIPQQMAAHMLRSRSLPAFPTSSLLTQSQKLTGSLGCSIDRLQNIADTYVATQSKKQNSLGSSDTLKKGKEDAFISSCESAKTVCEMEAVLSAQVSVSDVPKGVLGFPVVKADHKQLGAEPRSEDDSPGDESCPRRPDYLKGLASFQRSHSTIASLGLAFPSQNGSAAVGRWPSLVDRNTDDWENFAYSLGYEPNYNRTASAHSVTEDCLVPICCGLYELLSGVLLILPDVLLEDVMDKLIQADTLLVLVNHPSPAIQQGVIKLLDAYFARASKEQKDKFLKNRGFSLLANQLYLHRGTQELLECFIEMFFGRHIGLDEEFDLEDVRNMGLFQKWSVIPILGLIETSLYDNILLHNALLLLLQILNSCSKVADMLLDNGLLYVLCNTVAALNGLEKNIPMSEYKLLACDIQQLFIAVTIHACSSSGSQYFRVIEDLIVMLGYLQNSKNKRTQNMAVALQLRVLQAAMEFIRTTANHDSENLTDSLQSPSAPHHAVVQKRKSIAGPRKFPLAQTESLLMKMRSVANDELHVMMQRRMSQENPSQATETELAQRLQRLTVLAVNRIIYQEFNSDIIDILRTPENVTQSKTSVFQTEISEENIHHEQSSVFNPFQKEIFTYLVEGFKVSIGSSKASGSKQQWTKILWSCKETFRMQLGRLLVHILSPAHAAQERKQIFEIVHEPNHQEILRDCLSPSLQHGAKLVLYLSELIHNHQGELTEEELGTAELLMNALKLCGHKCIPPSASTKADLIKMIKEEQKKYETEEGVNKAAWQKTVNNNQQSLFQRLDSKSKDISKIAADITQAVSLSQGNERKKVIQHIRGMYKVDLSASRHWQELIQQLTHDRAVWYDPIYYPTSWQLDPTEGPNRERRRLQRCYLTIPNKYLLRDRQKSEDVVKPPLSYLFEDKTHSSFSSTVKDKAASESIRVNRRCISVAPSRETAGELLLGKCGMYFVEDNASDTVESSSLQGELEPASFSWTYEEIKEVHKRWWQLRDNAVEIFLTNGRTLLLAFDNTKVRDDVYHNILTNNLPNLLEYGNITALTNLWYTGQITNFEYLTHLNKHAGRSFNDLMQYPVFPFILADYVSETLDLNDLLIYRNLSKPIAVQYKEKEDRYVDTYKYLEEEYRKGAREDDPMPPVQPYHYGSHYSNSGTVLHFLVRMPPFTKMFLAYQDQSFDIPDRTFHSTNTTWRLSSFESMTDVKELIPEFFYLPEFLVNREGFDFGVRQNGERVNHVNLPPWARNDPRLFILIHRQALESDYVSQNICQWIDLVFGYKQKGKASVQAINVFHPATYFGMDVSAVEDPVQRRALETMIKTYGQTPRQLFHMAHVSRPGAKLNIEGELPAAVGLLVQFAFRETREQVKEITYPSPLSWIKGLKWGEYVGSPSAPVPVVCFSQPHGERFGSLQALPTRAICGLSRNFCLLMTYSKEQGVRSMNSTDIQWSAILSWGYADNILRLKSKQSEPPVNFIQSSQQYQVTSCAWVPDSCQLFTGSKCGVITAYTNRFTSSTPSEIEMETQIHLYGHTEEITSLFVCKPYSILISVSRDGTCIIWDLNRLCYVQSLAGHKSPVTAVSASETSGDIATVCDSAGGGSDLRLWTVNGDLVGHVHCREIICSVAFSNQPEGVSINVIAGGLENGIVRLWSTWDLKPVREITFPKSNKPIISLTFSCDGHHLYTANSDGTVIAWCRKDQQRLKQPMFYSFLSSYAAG
# UniProt P27448: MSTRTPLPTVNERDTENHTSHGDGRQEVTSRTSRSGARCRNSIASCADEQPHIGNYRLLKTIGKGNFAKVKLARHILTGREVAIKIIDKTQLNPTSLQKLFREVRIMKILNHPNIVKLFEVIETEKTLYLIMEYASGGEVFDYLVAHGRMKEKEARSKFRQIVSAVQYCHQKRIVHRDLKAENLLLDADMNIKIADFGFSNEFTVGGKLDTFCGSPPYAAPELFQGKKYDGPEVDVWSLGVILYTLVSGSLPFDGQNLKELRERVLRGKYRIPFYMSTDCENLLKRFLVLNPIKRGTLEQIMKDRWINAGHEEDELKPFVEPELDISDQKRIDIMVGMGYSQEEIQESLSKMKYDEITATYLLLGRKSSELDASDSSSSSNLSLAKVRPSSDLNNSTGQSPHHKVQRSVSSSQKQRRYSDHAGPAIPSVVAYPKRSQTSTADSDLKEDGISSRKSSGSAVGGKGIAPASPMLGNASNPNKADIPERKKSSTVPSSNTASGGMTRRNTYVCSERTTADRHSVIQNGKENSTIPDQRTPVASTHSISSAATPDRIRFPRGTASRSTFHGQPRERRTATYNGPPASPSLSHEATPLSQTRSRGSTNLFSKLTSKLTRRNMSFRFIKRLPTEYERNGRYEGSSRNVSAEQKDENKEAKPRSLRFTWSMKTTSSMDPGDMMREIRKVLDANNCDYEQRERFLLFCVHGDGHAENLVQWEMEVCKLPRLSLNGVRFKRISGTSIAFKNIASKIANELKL
# UniProt P20645: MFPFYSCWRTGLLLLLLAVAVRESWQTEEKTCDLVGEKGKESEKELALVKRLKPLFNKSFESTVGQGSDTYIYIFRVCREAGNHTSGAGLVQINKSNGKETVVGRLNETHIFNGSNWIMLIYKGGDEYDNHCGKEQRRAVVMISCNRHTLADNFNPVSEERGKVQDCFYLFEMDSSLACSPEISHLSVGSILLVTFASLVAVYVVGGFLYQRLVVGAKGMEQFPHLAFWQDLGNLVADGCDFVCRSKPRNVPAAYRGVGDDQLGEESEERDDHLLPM
# UniProt O60476: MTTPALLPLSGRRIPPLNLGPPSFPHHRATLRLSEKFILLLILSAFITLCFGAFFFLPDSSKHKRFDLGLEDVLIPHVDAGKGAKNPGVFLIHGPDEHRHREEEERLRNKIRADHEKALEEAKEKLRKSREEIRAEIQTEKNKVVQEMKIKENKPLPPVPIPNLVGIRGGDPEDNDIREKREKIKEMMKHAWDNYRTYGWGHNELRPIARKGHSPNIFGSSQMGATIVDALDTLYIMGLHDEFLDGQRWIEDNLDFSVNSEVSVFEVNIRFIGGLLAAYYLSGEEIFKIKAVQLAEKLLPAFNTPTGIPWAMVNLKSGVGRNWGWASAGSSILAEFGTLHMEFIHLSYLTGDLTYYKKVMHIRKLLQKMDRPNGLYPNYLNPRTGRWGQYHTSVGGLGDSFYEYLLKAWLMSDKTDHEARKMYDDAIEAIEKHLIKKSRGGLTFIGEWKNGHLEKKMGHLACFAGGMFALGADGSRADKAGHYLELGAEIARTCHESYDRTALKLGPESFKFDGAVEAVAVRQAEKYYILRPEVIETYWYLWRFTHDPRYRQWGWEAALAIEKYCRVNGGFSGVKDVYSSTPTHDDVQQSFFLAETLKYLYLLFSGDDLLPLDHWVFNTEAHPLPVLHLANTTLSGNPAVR
# UniProt Q99759: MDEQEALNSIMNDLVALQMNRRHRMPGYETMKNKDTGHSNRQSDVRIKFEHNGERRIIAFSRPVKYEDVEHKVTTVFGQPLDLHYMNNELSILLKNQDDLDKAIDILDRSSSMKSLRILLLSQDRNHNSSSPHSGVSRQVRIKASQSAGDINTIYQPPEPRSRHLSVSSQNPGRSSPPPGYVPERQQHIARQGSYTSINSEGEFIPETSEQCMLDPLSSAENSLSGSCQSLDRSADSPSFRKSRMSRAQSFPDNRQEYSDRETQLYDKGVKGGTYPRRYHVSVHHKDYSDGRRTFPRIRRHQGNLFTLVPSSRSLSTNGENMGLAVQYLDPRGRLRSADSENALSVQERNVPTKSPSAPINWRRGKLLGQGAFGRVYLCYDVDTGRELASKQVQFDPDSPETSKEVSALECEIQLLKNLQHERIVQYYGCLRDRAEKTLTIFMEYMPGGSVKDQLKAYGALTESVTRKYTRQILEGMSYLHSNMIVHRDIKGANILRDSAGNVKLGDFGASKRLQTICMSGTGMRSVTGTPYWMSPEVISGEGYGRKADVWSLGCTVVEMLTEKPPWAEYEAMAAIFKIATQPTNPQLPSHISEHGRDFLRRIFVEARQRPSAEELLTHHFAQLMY
# The other results are listed elsewhere or left out.
# Compound: Cc1cc(ccc1-c1ccccc1)C(=O)N1CCCN(CC1)C(=O)CCl [compound 10]
# Assay: probe-labelled cysteine peptide fold change vs DMSO (competition) (log2 fold change); higher = less target engagement (more negative = stronger competition)
# Details: THP-1, incubation time: 4 h
# 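Further: competitive profiling in live THP-1 cells: cysteine peptides tagged with an iodoacetamide desthiobiotin (IA-DTB) probe, intensity after compound treatment relative to DMSO-treated cells.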
Target,probe-labelled cysteine peptide fold change (10 µM),probe-labelled cysteine peptide fold change (50 µM)
MAPK7_Q13164_359_YHDPDDEPDCAPPFDFAFDREALTR (UniProt Q13164),-0.296,0.0143
LYST_Q99698_1646+1651_TFCMIGHCLSSQEEFLQLAGK (UniProt Q99698),-0.181,-0.218
MAP4K1_Q92918_494_LFNGCPLR (UniProt Q92918),-0.323,-0.17
MACF1_Q9UPN3_5116_VNSGCVMMENK (UniProt Q9UPN3),0.527,0.0552
MAT1A_Q00266_34_ICDQISDAVLDAHLK (UniProt Q00266),-0.542,-0.336
MBLAC2_Q68D91_212_ISDYVGTCER (UniProt Q68D91),0.0556,0.0236
MARK3_P27448_46_NSIASCADEQPHIGNYR (UniProt P27448),-0.297,-0.161
MCAT_Q8IVS2_120_TVHCQPAIFVASLAAVEK (UniProt Q8IVS2),-0.204,0.217
MAT2B_Q9NZL9_58_EFQQNNWHAVGCGFR (UniProt Q9NZL9),0.0464,-0.023
MACF1_Q9UPN3_986_SSAPGECHQIMK (UniProt Q9UPN3),0.115,-0.0463
M6PR_P20645_145_RAVVMISCNR (UniProt P20645),-0.131,-0.164
MAP1S_Q66K74_342_LISPNLGVVFFNACEAASR (UniProt Q66K74),0.00489,-0.0757
MAPK3_P27361_144_SQQLSNDHICYFLYQILR (UniProt P27361),-0.267,0.58
MAPK8_P45983_41_YQNLKPIGSGAQGIVCAAYDAILER (UniProt P45983),0.0285,0.101
MALT1_Q9UDY8_667_HCLYTR (UniProt Q9UDY8),-0.0226,-0.319
MAD2L1_Q13257_106_WQFDIECDK (UniProt Q13257),-0.0343,0.171
MACF1_Q9UPN3_443_IQNGALNCEEK (UniProt Q9UPN3),0.131,0.511
MBNL2_Q5VZF2_19_WLTLEVCR (UniProt Q5VZF2),0.141,-0.0629
MAN1A2_O60476_462_MGHLACFAGGMFALGADGSR (UniProt O60476),-0.299,-0.149
MARK3_P27448_213_LDTFCGSPPYAAPELFQGK (UniProt P27448),-0.0946,0.0843

Target,probe-labelled cysteine peptide fold change (10 µM),probe-labelled cysteine peptide fold change (50 µM)
LYZ_P61626_83_YWCNDGK (UniProt P61626),0.00228,-0.21
MAP3K20_Q9NYL2_242_SFAELLHQCWEADAK (UniProt Q9NYL2),0.0722,0.234
MAP4K2_Q12851_302_ASDPHLGTPSPEDCELETYDMFPDTIHSR (UniProt Q12851),-0.182,0.108
MBOAT7_Q96N66_310_NIDCYSTDFCVR (UniProt Q96N66),0.0364,0.0912
MAP3K3_Q99759_430_IVQYYGCLR (UniProt Q99759),-0.109,0.013
MAEA_Q7L5Y9_195_SCLEFSLR (UniProt Q7L5Y9),0.0228,-0.369
MACF1_Q9UPN3_3109_EIACGAQSEPFPCMTPRPEGLHYQESDGK (UniProt Q9UPN3),-0.348,-0.619
MAGT1_Q9H0U3_90_QCVVCK (UniProt Q9H0U3),-0.185,0.0992
LYN_P07948_219_QADGLCR (UniProt P07948),-0.0469,-0.0264
MBTD1_Q05BQ5_288_VSESMQYPFKPCMR (UniProt Q05BQ5),0.00855,0.00392
MACF1_Q9UPN3_877_AVCDYR (UniProt Q9UPN3),0.102,0.114
MAP4K4_O95819_496_HLEVLQQQLLQEQAMLLECR (UniProt O95819),0.273,-0.337
MARCH3_Q86UD3_89_ICHEGSSQEDLLSPCECTGTLGTIHR (UniProt Q86UD3),-0.0768,-0.221
LYAR_Q9NX58_51_CISEDQK (UniProt Q9NX58),0.032,-0.0969
MARS2_Q96GW9_336_ICVHSHWTVCGQK (UniProt Q96GW9),-0.0929,-0.174
MACF1_Q9UPN3_6075_ILGADLIFACGETEKPEVR (UniProt Q9UPN3),-0.00571,0.337
LYAR_Q9NX58_6+9_VFFTCNACGESVKK (UniProt Q9NX58),-0.147,-0.92
MAP2K2_P36507_384_SEVEEVDFAGWLCK (UniProt P36507),0.0856,0.0969
MAP3K3_Q99759_411_EVSALECEIQLLK (UniProt Q99759),-0.0261,-0.158
